Test results: PubChem BioAssay AID330 (DTP/NCI, 2004)
The list is a part of this screen's results and no random one: it gathers tests that were run many times, whatever their T/C, doses with no T/C, and many T/C values between a quarter and a half above the control. Further doses and runs are listed elsewhere. T/C is the treated group as % of the vehicle group. Some doses have a count of surviving animals in place of a T/C: the source holds a T/C of zero for them, seemingly a mark for toxic or unscored doses. Some survivor counts are full or nearly so, which does not show that the dose was tolerated: the source hardly ever lists a survival T/C far under the control, and the zero likely stands for such cases as well. Survivors were counted at the toxicity check, usually on the fifth day, unless a day is given; later deaths do not show. Schedules are NCI's codes, read here as Q, the interval in days (D) or hours (H), X, the number of doses. Where survival is the endpoint, this PubChem deposit counts one and a half times the control or more as active, and values a quarter to a half above the control carry no call in these data; other NCI protocols may use other cut-offs. Some doses were run more than once; the results are listed from low to high. Some T/C values carry the count of animals alive at the toxicity check (mostly the fifth day); where none is given, no animal had died by that day.

Test system: P388 leukemia ip, CD2F1 mice, survival T/C
Assay: NCI In Vivo Anticancer Drug Screen. Data for tumor model P388 Leukemia (intraperitoneal) in CD2F1 (CDF1) mice
Conditions: T/C endpoint: median survival time, higher T/C = longer survival
[1] = dose: 400.0 mg/kg/injection, schedule: Q04DX002 (ip), vehicle: saline with Tween-80
[2] = dose: 100.0 mg/kg/injection, schedule: Q01DX009 (ip), vehicle: saline
[3] = dose: 200.0 mg/kg/injection, schedule: Q01DX009 (ip), vehicle: saline
[4] = dose: 100.0 mg/kg/injection, schedule: Q01DX005 (ip), vehicle: saline with Tween-80
[5] = dose: 200.0 mg/kg/injection, schedule: Q01DX005 (ip), vehicle: saline with Tween-80
[6] = dose: 25.0 mg/kg/injection, schedule: Q01DX005 (ip), vehicle: saline with Tween-80
[7] = dose: 50.0 mg/kg/injection, schedule: Q01DX005 (ip), vehicle: saline with Tween-80
[8] = dose: 200.0 mg/kg/injection, schedule: Q01DX005 (ip), vehicle: Klucel (hydroxypropylcellulose) (HPC)

Structure (SMILES): CNC(=O)On1cccc1C#N
- survivor count (dose: 100.0 mg/kg/injection, schedule: Q04DX002 (ip), vehicle: saline with Tween-80): 0 of 6
- survivor count (dose: 200.0 mg/kg/injection, schedule: Q04DX002 (ip), vehicle: saline with Tween-80): 0 of 6
- survivor count [1]: 0 of 6

Structure (SMILES): CCOC(=O)[C]1([Sn]([CH3])([CH3])[CH3])N=NC(C(=O)OC)=C1C(=O)OC (stereo unspecified)
- survivor count (dose: 3.12 mg/kg/injection, schedule: Q01DX009 (ip), vehicle: saline): 6 of 6
- survivor count (dose: 6.25 mg/kg/injection, schedule: Q01DX009 (ip), vehicle: saline): 1 of 6
- survivor count (dose: 12.5 mg/kg/injection, schedule: Q01DX009 (ip), vehicle: saline): 0 of 6
- survivor count (dose: 25.0 mg/kg/injection, schedule: Q01DX009 (ip), vehicle: saline): 0 of 6
- survivor count (dose: 50.0 mg/kg/injection, schedule: Q01DX009 (ip), vehicle: saline): 0 of 6
- survivor count [2]: 0 of 6
- survivor count [3]: 0 of 6

Structure (SMILES): CN(C)c1ccc(/C=C/c2ccnc3ccc4ccccc4c23)cc1
- survivor count (dose: 400.0 mg/kg/injection, schedule: Q01DX009 (ip), vehicle: saline with Tween-80): 6 of 6

Structure (SMILES): C[N+](C)(C)CCc1ccc2ccccc2c1
- survivor count (dose: 200.0 mg/kg/injection, schedule: Q04DX002 (ip), vehicle: saline + alcohol): 1 of 6
- survivor count (dose: 400.0 mg/kg/injection, schedule: Q04DX002 (ip), vehicle: saline + alcohol): 0 of 6

Structure (SMILES): COc1cc(OC)c(NC(=O)CC2SC(N)=NC2=O)cc1Cl (stereo unspecified)
- survivor count (dose: 200.0 mg/kg/injection, schedule: Q01DX009 (ip), vehicle: Klucel (hydroxypropylcellulose) (HPC)): 5 of 6

Structure (SMILES): NC1[N-]C(C2CCCC[N-]2)CC2CCCCC21.O=[N+]([O-])O.O=[N+]([O-])O.[Cu+2] (stereo unspecified)
- survivor count (dose: 25.0 mg/kg/injection, schedule: Q04DX002 (ip), vehicle: suspension in saline): 1 of 6
- survivor count (dose: 100.0 mg/kg/injection, schedule: Q04DX002 (ip), vehicle: suspension in saline): 0 of 6
- survivor count (dose: 200.0 mg/kg/injection, schedule: Q04DX002 (ip), vehicle: suspension in saline): 0 of 6
- survivor count (dose: 400.0 mg/kg/injection, schedule: Q04DX002 (ip), vehicle: suspension in saline): 0 of 6

Structure (SMILES): O=C1CSC(c2cccs2)N1CCN1C(=O)CSC1c1cccs1 (stereo unspecified)
- survivor count [1]: 6 of 6

Structure (SMILES): CS(=O)(=O)C#CCCCCCCC#CS(C)(=O)=O
- survivor count (dose: 100.0 mg/kg/injection, schedule: Q04DX002 (ip), vehicle: saline): 2 of 6
- survivor count (dose: 200.0 mg/kg/injection, schedule: Q04DX002 (ip), vehicle: saline): 3 of 6
- survivor count (dose: 400.0 mg/kg/injection, schedule: Q04DX002 (ip), vehicle: saline): 4 of 6

Structure (SMILES): CC1CN(Cc2cc(C(C)(C)c3cc(Cl)c(O)c(CN4CC(C)OC(C)C4)c3)cc(Cl)c2O)CC(C)O1 (stereo unspecified)
- survivor count [4]: 6 of 6
- survivor count [5]: 6 of 6

Structure (SMILES): CN1CCc2cc(O)c(O)cc2C1Cc1ccc(O)c(O)c1 (stereo unspecified)
- survivor count (dose: 200.0 mg/kg/injection, schedule: Q01DX009 (ip), vehicle: saline with Tween-80): 2 of 6

Structure (SMILES): COC(=O)c1nc(N)nc(C(=O)OC)c1C(=O)c1cccc2ccccc12
- survivor count (dose: 240.0 mg/kg/injection, schedule: Q01DX005 (ip), vehicle: Klucel (hydroxypropylcellulose) (HPC)): 0 of 6

Structure (SMILES): CCCCCCC(=O)/C=C/c1ccc(OCc2ccccc2)c(OCc2ccccc2)c1
- survivor count [6]: 6 of 6
- survivor count [7]: 6 of 6
- survivor count [4]: 6 of 6
- survivor count [5]: 6 of 6

Structure (SMILES): O=c1nc(Oc2ccccc2)nc2ncccn12
- T/C (dose: 25.0 mg/kg/injection, schedule: Q01DX009 (ip), vehicle: saline with Tween-80): 137 % of control

Structure (SMILES): CC[C@H]1C[C@H]2CN(CCc3c([nH]c4ccccc34)[C@@](C(=O)OC)(c3cc4c(cc3OC)N(C=O)[C@H]3[C@@](O)(C(=O)OC)[C@H](OC(C)=O)[C@]5(CC)C=CCN6CC[C@]43[C@@H]65)C2)C1
- T/C (dose: 0.25 mg/kg/injection, schedule: Q01DX001 (ip), vehicle: water): 137 and 144 % of control
- T/C (dose: 0.5 mg/kg/injection, schedule: Q01DX001 (ip), vehicle: water): 137 % of control
- survivor count (dose: 2.0 mg/kg/injection, schedule: Q01DX001 (ip), vehicle: water): 3 of 6
- survivor count (dose: 4.0 mg/kg/injection, schedule: Q01DX001 (ip), vehicle: water): 0 of 6
- survivor count (dose: 8.0 mg/kg/injection, schedule: Q01DX001 (ip), vehicle: water): 0 of 6
- survivor count (dose: 16.0 mg/kg/injection, schedule: Q01DX001 (ip), vehicle: water): 0 of 6
- survivor count (dose: 32.0 mg/kg/injection, schedule: Q01DX001 (ip), vehicle: water): 0 of 6

Structure (SMILES): CN=C1SC(C)(C)NN1C
- survivor count (dose: 100.0 mg/kg/injection, schedule: Q01DX005 (ip), vehicle: Klucel (hydroxypropylcellulose) (HPC)): 1 of 6
- survivor count [8]: 0 of 6

Structure (SMILES): CN1C(=O)c2c(ccc3c2OCO3)[C@@]2(C)C(=O)Cc3cc4c(cc3[C@H]12)OCO4
- survivor count (dose: 25.0 mg/kg/injection, schedule: Q01DX005 (ip), vehicle: Klucel (hydroxypropylcellulose) (HPC)): 6 of 6

Structure (SMILES): CC(C(=O)NC(=O)O)S(=O)(=O)O (stereo unspecified)
- survivor count (dose: 50.0 mg/kg/injection, schedule: Q01DX001 (ip), vehicle: saline with Tween-80): 3 of 6
- survivor count (dose: 100.0 mg/kg/injection, schedule: Q01DX001 (ip), vehicle: saline with Tween-80): 1 of 6
- survivor count (dose: 200.0 mg/kg/injection, schedule: Q01DX001 (ip), vehicle: saline with Tween-80): 0 of 6
- survivor count (dose: 400.0 mg/kg/injection, schedule: Q01DX001 (ip), vehicle: saline with Tween-80): 0 of 6

Structure (SMILES): COc1ccc(/C=C2\SC(=S)N(C3CC3)C2=O)cc1OC
- survivor count [8]: 5 of 5

Structure (SMILES): CNC(=S)NNc1cccc([N+](=O)[O-])c1
- survivor count (dose: 400.0 mg/kg/injection, schedule: Q01DX009 (ip), vehicle: other): 2 of 6

Structure (SMILES): O=C1SC(Nc2cccc([N+](=O)[O-])c2)/C(=N\N=C2/C(Nc3cccc([N+](=O)[O-])c3)SC(=O)N2Cc2ccccc2)N1Cc1ccccc1 (stereo unspecified)
- survivor count [8]: 6 of 6

Structure (SMILES): CC(/C=N/NC(=O)C[n+]1ccccc1)=N/NC(=O)C[n+]1ccccc1
- T/C (dose: 12.5 mg/kg/injection, schedule: Q01DX005 (ip), vehicle: saline with Tween-80): 128 % of control
- T/C [6]: 125 % of control
- T/C [7]: 125 % of control [5 of 6 alive]
- survivor count [4]: 0 of 6
- survivor count [5]: 0 of 6

Structure (SMILES): CCOC(=O)c1cc(OC(C)=O)c2ccc(OC)c(OC)c2c1
- survivor count (dose: 1.56 mg/kg/injection, schedule: Q01DX009 (ip), vehicle: distilled water + Tween-80): 6 of 6
- survivor count (dose: 3.13 mg/kg/injection, schedule: Q01DX009 (ip), vehicle: distilled water + Tween-80): 6 of 6
- T/C (dose: 12.5 mg/kg/injection, schedule: Q01DX009 (ip), vehicle: distilled water + Tween-80): 94, 99 [4 of 5 alive], 102, 130 % of control
- T/C (dose: 25.0 mg/kg/injection, schedule: Q01DX009 (ip), vehicle: distilled water + Tween-80): 91, 93, 95, 99 % of control

Structure (SMILES): c1ccc(-c2cc3c(cc4c5nncn5ncn34)o2)cc1
- survivor count (dose: 60.0 mg/kg/injection, schedule: Q01DX005 (ip), vehicle: saline with Tween-80): 6 of 6
- survivor count (dose: 120.0 mg/kg/injection, schedule: Q01DX005 (ip), vehicle: saline with Tween-80): 6 of 6

Structure (SMILES): C1CCC(N2CCOCC2)CC1
- survivor count [2]: 0 of 6
- survivor count [3]: 0 of 6

Structure (SMILES): Nc1ncc2c(n1)Oc1cc3nc4c(=O)nc(N)nc-4oc3cc1N2
- survivor count [8]: 2 of 5

Structure (SMILES): O=c1[nH]c2c([N+](=O)[O-])cccc2nc1/C=C(\O)c1cccc([N+](=O)[O-])c1
- survivor count (dose: 60.0 mg/kg/injection, schedule: Q01DX005 (ip), vehicle: Klucel + Tween-80): 6 of 6
- survivor count (dose: 120.0 mg/kg/injection, schedule: Q01DX005 (ip), vehicle: Klucel + Tween-80): 5 of 6
- survivor count (dose: 240.0 mg/kg/injection, schedule: Q01DX005 (ip), vehicle: Klucel + Tween-80): 1 of 6

Structure (SMILES): NSC(=S)NCc1ccco1
- survivor count (dose: 400.0 mg/kg/injection, schedule: Q01DX005 (ip), vehicle: Klucel (hydroxypropylcellulose) (HPC)): 0 of 5
